PubChem BioAssay AID652272 | Drosophila RNAi Screening Center, 2013
The deposit covers about 21,000 reagents; below is an unselected part of those with a known target gene and a result. Of all reagents, 503 (2.4%) got an active call. 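Raw plate light values, not normalised; calls rest on replicate z-scores that were not deposited; hits include reporter decreases as well as increases.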 Unmarked entries are inactive. The record does not give: the amount of reagent, the time to read-out.

Aim: 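Finding fly genes that regulate Hedgehog signal transduction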 (primary screen)
Cell system: Drosophila clone 8 (Cl8) cells
Reagent: long dsRNA against Drosophila genes
Detection: 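Plate reader light from a firefly reporter under a ptc promoter fragment that responds to Hedgehog, with Renilla light as transfection reference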
Reading the numbers: firefly Hh reporter signal: higher = more ptc reporter light; Renilla reference signal: higher = more Renilla control light
Hit rule: 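Called a hit if the two-replicate mean z-score lies below -2 or above +3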
Calls: active = hit: reporter lowered or raised; inactive = not a hit

With CG31516 [DRSC11994], what was measured?
firefly Hh reporter signal, replicate 1: 2.13e5; Renilla reference signal, replicate 1: 4796

With CG8292 [DRSC03082], what does the deposit list?
firefly Hh reporter signal, replicate 1: 88009; firefly Hh reporter signal, replicate 2: 43882; Renilla reference signal, replicate 1: 2201; Renilla reference signal, replicate 2: 4310

With CG18130 [DRSC19790], what does the deposit list?
firefly Hh reporter signal, replicate 1: 73868; firefly Hh reporter signal, replicate 2: 2.37e5; Renilla reference signal, replicate 1: 1906; Renilla reference signal, replicate 2: 8105

How did the screen score eIF3i [DRSC03464]?
firefly Hh reporter signal, replicate 1: 55891; firefly Hh reporter signal, replicate 2: 25648; Renilla reference signal, replicate 1: 2832; Renilla reference signal, replicate 2: 1463

For sac [DRSC12237], what was measured?
firefly Hh reporter signal, replicate 1: 1.01e5; firefly Hh reporter signal, replicate 2: 1.47e5; Renilla reference signal, replicate 1: 3637; Renilla reference signal, replicate 2: 4089

What did the screen give for slbo [DRSC04716]?
firefly Hh reporter signal, replicate 1: 1.32e5; firefly Hh reporter signal, replicate 2: 80381; Renilla reference signal, replicate 1: 3981; Renilla reference signal, replicate 2: 7340

What did the screen give for CG33966 [DRSC08256]?
firefly Hh reporter signal, replicate 1: 68848; firefly Hh reporter signal, replicate 2: 44080; Renilla reference signal, replicate 1: 1965; Renilla reference signal, replicate 2: 3600

For Osi18 [DRSC12181], what does the deposit list?
firefly Hh reporter signal, replicate 1: 55975; firefly Hh reporter signal, replicate 2: 85862; Renilla reference signal, replicate 1: 1766; Renilla reference signal, replicate 2: 2536

With CG10164 [DRSC14197], how do the results read?
firefly Hh reporter signal, replicate 1: 3.80e5; firefly Hh reporter signal, replicate 2: 77756; Renilla reference signal, replicate 1: 2951; Renilla reference signal, replicate 2: 2951

For CG14050 [DRSC18594], how do the results read?
firefly Hh reporter signal, replicate 1: 76816; firefly Hh reporter signal, replicate 2: 2.44e5; Renilla reference signal, replicate 1: 2758; Renilla reference signal, replicate 2: 8640

3 entries from above, sorted by “firefly Hh reporter signal, replicate 2”, low to high:
CG33966 [DRSC08256] → firefly Hh reporter signal, replicate 1 = 68848; firefly Hh reporter signal, replicate 2 = 44080; Renilla reference signal, replicate 1 = 1965; Renilla reference signal, replicate 2 = 3600
CG10164 [DRSC14197] → firefly Hh reporter signal, replicate 1 = 3.80e5; firefly Hh reporter signal, replicate 2 = 77756; Renilla reference signal, replicate 1 = 2951; Renilla reference signal, replicate 2 = 2951
Osi18 [DRSC12181] → firefly Hh reporter signal, replicate 1 = 55975; firefly Hh reporter signal, replicate 2 = 85862; Renilla reference signal, replicate 1 = 1766; Renilla reference signal, replicate 2 = 2536

Additional reagents follow:
How did the screen score CG43867 [DRSC17582]?
firefly Hh reporter signal, replicate 1: 4.06e5; firefly Hh reporter signal, replicate 2: 1.72e5; Renilla reference signal, replicate 1: 18896; Renilla reference signal, replicate 2: 3330

What did the screen give for CG43867 [DRSC17836]?
firefly Hh reporter signal, replicate 1: 86185; firefly Hh reporter signal, replicate 2: 1.65e5; Renilla reference signal, replicate 1: 3505; Renilla reference signal, replicate 2: 6043

With CG43867 [DRSC17837], how do the results read?
firefly Hh reporter signal, replicate 1: 80864; firefly Hh reporter signal, replicate 2: 2.21e5; Renilla reference signal, replicate 1: 3273; Renilla reference signal, replicate 2: 7732

Which result is listed for CG43867 [DRSC17942]?
firefly Hh reporter signal, replicate 1: 1.08e5; firefly Hh reporter signal, replicate 2: 2.93e5; Renilla reference signal, replicate 1: 3573; Renilla reference signal, replicate 2: 12044

For CG43867 [DRSC17943], what does the deposit list?
firefly Hh reporter signal, replicate 1: 91589; firefly Hh reporter signal, replicate 2: 1.63e5; Renilla reference signal, replicate 1: 3057; Renilla reference signal, replicate 2: 7194

For Gdh [DRSC16679], how do the results read?
firefly Hh reporter signal, replicate 1: 85257; firefly Hh reporter signal, replicate 2: 67793; Renilla reference signal, replicate 1: 3616; Renilla reference signal, replicate 2: 2496

For CG12011 [DRSC08219], what was measured?
firefly Hh reporter signal, replicate 1: 1.03e5; firefly Hh reporter signal, replicate 2: 71448; Renilla reference signal, replicate 1: 2887; Renilla reference signal, replicate 2: 5787

How did the screen score Fas2 [DRSC17308]?
firefly Hh reporter signal, replicate 1: 4.26e5; firefly Hh reporter signal, replicate 2: 1.28e5; Renilla reference signal, replicate 1: 21632; Renilla reference signal, replicate 2: 2920

What is on record for Fas2 [DRSC17309]?
firefly Hh reporter signal, replicate 1: 4.54e5; firefly Hh reporter signal, replicate 2: 1.95e5; Renilla reference signal, replicate 1: 22217; Renilla reference signal, replicate 2: 3745

What did the screen give for Fas2 [DRSC18664]?
firefly Hh reporter signal, replicate 1: 1.22e5; firefly Hh reporter signal, replicate 2: 1.11e5; Renilla reference signal, replicate 1: 2405; Renilla reference signal, replicate 2: 3893

What is on record for kmg [DRSC02829]?
firefly Hh reporter signal, replicate 1: 1.30e5; firefly Hh reporter signal, replicate 2: 43067; Renilla reference signal, replicate 1: 3251; Renilla reference signal, replicate 2: 4038
